# Assay results taken from the supplement of paper PMC10849652.
# Sequences of proteins named here, by UniProt entry; tags and fusion partners are left off. A change or cut given only in a name is not applied to a line headed by its entry.
# UniProt P48556: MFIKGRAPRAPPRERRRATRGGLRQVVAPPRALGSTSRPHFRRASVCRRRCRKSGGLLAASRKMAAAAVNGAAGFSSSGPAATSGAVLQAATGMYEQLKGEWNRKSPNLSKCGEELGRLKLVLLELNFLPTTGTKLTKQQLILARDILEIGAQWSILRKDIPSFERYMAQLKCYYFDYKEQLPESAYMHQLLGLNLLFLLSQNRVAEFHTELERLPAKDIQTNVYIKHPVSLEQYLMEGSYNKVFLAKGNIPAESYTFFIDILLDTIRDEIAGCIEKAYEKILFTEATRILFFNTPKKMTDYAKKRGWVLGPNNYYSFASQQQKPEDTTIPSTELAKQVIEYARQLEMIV
# UniProt Q99460, whole entry, looked up: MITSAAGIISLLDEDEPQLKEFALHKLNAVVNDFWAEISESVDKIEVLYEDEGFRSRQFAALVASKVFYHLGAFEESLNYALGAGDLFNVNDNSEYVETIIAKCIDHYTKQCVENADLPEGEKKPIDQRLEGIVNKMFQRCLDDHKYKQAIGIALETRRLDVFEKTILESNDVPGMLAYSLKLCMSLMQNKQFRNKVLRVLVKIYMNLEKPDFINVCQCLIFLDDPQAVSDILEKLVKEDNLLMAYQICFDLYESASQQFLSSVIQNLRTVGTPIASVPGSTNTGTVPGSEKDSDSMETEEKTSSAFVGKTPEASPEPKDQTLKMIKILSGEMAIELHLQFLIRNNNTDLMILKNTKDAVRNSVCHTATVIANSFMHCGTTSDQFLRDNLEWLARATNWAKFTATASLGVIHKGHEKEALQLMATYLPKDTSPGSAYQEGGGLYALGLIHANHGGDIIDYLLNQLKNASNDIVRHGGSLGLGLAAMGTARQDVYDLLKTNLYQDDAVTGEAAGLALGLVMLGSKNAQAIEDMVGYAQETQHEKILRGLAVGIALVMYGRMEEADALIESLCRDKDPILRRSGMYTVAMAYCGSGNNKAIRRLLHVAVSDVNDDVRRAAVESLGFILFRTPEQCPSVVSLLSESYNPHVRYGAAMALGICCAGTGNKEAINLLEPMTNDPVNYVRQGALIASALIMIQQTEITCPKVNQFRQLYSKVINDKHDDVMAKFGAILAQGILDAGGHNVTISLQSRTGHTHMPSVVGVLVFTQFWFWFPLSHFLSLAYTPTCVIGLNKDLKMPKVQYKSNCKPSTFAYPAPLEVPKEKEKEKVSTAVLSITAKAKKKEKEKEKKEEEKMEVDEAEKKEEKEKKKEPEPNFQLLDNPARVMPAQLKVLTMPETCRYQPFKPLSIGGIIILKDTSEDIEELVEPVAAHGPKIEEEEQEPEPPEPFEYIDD
# UniProt Q9BRX8: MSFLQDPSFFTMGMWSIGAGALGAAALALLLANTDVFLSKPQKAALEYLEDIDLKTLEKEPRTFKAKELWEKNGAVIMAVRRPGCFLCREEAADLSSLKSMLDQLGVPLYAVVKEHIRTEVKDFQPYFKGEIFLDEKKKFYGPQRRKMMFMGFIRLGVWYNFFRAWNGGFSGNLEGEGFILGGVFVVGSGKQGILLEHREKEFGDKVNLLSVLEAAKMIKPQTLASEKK
# UniProt Q6GMV3: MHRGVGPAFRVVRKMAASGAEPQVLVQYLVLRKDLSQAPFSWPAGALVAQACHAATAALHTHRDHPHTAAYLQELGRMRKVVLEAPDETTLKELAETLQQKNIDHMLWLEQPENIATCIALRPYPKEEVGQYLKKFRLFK
# UniProt P25787: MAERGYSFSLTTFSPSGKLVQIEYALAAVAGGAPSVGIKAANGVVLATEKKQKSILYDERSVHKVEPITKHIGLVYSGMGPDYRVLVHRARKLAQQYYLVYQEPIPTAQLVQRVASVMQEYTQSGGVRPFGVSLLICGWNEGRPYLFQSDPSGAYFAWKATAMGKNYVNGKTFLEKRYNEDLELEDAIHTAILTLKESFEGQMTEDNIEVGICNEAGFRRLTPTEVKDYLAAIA
# UniProt Q2TAL8: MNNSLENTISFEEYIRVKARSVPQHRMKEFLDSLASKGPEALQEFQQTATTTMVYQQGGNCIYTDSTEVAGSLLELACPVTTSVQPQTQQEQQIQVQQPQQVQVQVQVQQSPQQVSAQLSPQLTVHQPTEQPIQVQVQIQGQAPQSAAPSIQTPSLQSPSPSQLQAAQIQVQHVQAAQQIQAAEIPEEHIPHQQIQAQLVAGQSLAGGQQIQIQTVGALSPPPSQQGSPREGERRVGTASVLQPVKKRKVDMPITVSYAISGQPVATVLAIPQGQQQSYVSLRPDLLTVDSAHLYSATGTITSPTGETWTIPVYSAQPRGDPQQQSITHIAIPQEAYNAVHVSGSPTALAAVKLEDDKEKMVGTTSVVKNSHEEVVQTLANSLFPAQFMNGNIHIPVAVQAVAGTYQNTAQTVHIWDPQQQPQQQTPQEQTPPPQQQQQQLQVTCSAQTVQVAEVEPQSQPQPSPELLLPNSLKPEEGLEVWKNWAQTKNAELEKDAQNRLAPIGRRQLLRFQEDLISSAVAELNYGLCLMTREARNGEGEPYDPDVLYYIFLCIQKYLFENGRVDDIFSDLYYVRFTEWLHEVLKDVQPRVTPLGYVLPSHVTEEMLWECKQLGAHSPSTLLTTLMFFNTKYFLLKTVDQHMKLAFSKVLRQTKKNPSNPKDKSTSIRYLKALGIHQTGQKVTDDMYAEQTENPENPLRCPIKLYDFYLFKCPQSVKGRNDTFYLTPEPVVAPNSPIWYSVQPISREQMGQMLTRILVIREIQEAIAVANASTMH
# UniProt Q14997: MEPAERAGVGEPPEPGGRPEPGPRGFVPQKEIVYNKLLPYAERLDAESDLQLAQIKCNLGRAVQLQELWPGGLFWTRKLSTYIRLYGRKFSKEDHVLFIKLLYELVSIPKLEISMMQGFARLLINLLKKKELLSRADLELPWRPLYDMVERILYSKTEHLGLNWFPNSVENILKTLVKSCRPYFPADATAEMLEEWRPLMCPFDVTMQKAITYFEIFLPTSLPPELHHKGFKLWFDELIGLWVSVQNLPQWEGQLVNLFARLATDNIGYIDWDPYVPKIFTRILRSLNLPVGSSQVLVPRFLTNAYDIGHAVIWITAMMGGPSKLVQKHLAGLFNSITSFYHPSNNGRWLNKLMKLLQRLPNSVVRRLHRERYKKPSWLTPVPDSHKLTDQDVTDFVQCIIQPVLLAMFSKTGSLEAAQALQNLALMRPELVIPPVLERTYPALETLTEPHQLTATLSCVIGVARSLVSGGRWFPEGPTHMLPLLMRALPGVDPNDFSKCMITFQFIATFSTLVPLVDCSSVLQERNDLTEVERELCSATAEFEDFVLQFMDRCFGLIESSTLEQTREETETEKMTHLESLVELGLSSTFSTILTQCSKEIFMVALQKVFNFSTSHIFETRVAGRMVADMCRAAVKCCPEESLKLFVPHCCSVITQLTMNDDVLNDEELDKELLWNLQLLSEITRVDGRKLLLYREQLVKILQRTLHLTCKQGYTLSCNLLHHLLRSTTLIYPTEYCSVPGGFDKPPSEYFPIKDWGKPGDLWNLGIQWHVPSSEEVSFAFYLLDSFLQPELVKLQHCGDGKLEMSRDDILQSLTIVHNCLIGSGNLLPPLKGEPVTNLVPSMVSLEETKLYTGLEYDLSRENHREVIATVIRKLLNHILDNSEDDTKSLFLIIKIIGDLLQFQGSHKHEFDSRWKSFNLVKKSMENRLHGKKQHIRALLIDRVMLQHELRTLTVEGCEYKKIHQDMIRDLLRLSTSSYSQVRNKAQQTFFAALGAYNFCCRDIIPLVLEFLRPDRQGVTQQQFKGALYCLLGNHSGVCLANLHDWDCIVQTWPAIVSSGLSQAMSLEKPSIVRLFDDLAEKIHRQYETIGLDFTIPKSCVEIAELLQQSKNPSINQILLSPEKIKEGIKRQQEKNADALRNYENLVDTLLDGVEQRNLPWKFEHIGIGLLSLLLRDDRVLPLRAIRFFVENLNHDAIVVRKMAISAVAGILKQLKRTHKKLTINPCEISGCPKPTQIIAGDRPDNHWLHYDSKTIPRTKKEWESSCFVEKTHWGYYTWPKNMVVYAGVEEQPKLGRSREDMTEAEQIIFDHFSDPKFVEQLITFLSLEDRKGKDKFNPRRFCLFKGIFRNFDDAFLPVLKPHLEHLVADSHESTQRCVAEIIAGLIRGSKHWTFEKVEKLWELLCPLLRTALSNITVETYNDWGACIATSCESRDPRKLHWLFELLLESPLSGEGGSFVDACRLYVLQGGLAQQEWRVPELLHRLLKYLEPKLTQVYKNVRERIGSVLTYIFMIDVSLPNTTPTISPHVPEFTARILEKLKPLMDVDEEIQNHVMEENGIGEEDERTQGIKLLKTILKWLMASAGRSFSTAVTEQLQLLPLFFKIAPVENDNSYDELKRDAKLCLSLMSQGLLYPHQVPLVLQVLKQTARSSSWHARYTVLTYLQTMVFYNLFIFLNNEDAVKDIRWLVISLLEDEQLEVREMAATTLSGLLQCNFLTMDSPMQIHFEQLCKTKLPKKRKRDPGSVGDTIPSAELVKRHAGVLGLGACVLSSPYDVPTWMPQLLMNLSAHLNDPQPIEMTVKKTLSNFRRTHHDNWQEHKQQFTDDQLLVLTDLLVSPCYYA
# UniProt P32322: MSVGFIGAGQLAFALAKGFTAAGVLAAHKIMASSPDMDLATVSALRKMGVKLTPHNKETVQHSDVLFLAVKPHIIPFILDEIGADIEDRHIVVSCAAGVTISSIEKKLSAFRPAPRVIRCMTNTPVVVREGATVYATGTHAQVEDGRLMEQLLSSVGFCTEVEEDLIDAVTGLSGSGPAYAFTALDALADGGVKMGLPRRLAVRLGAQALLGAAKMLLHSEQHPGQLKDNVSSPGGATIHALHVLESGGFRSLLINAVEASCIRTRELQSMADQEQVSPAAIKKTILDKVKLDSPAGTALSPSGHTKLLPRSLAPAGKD
# UniProt P07602: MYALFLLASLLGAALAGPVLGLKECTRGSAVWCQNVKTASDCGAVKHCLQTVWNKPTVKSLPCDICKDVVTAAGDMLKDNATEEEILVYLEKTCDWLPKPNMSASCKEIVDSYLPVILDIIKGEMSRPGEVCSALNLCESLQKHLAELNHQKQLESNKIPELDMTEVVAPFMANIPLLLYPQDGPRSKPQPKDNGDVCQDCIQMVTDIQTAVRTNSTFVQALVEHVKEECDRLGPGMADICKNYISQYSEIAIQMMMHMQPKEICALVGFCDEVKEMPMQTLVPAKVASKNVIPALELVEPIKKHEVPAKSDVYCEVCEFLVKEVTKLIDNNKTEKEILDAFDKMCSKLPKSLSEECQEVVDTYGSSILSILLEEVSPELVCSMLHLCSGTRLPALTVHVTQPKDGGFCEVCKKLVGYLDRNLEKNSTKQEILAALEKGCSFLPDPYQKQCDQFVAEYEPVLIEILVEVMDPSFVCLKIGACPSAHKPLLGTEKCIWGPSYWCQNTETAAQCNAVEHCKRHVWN
# UniProt P18031: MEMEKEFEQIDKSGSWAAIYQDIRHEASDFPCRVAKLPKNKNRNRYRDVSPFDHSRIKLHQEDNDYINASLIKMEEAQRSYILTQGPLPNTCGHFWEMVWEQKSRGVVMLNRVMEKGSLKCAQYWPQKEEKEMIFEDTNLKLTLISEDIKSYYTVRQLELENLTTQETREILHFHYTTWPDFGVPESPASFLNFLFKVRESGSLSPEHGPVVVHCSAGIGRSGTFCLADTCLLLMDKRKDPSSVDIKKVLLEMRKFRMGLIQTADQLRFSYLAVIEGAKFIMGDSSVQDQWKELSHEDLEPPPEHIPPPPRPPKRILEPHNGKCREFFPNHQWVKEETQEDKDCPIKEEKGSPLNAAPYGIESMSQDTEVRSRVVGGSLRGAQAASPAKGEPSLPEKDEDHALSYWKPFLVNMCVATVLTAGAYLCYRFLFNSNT
# UniProt Q8WU10: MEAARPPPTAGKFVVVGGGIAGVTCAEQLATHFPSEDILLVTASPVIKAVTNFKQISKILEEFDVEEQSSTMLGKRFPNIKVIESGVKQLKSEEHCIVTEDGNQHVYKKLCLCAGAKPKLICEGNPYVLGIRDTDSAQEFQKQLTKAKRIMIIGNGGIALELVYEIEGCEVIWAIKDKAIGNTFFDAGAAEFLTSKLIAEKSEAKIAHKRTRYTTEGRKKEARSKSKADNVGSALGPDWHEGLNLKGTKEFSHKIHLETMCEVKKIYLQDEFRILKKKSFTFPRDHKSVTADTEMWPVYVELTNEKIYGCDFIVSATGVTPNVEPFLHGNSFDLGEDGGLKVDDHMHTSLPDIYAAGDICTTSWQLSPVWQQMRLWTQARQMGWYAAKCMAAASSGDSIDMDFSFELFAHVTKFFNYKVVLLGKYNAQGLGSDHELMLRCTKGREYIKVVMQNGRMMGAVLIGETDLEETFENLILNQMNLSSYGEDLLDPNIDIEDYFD
# UniProt Q12974: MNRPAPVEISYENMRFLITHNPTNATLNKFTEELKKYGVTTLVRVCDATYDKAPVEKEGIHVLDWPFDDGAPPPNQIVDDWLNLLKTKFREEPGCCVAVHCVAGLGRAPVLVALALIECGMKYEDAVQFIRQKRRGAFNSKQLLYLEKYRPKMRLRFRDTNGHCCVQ
# Some of the results follow.
# Columns and labels:
# Assay in all cases: log2 fold change, soluble protein after heating vs DMSO (PISA); higher = thermal stabilisation; K562 cells, 10 uM, 30 min; active = over 0.2 and 3.5 SD of the protein, either way, in both replicates (recomputed)
# [1] = compound: NC(=O)Nc1cc(-c2cccc(F)c2)sc1C(=O)N[C@H]1CCCNC1
# How it was run: (§1)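 Soluble protein was quantified by TMTpro 16plex LC-MS/MS after channel sums were equalised. It was obtained as the supernatant after 21,000xg for 90 min from pooled aliquots of K562 cells (2×10^6 cells/mL, 10 μM compound, 30 min) heated for 3 min across 48°C-58°C and extracted in PBS with 0.5% NP-40 at 4°C. Thermal stability values are relative to control samples and come from duplicates. They are given as log2 fold changes.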
# [2] = compound: NC(=O)c1cnc(N[C@@H]2CCCC[C@@H]2N)nc1Nc1cccc(-n2nccn2)c1
# How it was run: as §1
# [3] = compound: NC1(c2ccc(-c3nc4ccn5c(=O)[nH]nc5c4cc3-c3ccccc3)cc2)CCC1
# How it was run: as §1
# [4] = compound: NCC(=O)Nc1ccc(-n2nc(C(F)(F)F)cc2-c2ccc3c(ccc4ccccc43)c2)cc1
# How it was run: as §1
# [5] = compound: Nc1ccccc1NC(=O)c1ccc(CNC(=O)OCc2cccnc2)cc1 [entinostat]
# How it was run: as §1
# [6] = compound: O=C(CCCCCCC(=O)Nc1ccccc1)NO [vorinostat]
# How it was run: as §1
# [7] = compound: O=C(CCCCCCNC(=O)c1cnc(N(c2ccccc2)c2ccccc2Cl)nc1)NO [citarinostat]
# How it was run: as §1
# [8] = compound: O=C(O)c1ccc2c(c1)nc(Nc1cccc(Cl)c1)c1ccncc12 [silmitasertib]
# How it was run: as §1
# [9] = compound: O=C1NC(=O)C(c2cnc3ccccn23)=C1c1cn2c3c(cc(F)cc13)CN(C(=O)N1CCCCC1)CC2
# How it was run: as §1
# [10] = compound: c1cc(OCCN2CCCCC2)cc(-c2n[nH]c3ccc(-c4nnc[nH]4)cc23)c1
# How it was run: as §1
Target,log2 fold change [1],log2 fold change [2],log2 fold change [3],log2 fold change [4],log2 fold change [5],log2 fold change [6],log2 fold change [7],log2 fold change [8],log2 fold change [9],log2 fold change [10]
PSMD8 (UniProt P48556),inactive: -0.035,inactive: 0.042,inactive: -0.07,inactive: 0.009,inactive: -0.009,inactive: 0.016,inactive: -0.015,inactive: 0.007,inactive: 0.019,inactive: -0.101
PSMD1 (UniProt Q99460),inactive: 0.086,inactive: 0.007,inactive: -0.013,inactive: 0.068,inactive: 0.006,inactive: 0.013,inactive: 0.014,inactive: -0.019,inactive: 0.094,inactive: -0.057
PXMP2 (UniProt Q9NR77),inactive: 0.022,inactive: 0.04,inactive: -0.031,inactive: 0.021,inactive: 0.019,inactive: -0.053,inactive: 0.026,inactive: -0.002,inactive: -0.003,inactive: -0.043
PSMC3 (UniProt P17980),inactive: 0.014,inactive: -0.011,inactive: 0.046,inactive: 0.078,inactive: -0.024,inactive: -0.017,inactive: -0.053,inactive: -0.018,inactive: 0.049,inactive: -0.092
QTRT2 isoform 4 (UniProt Q9H974),inactive: 0.037,inactive: -0.016,inactive: -0.049,inactive: 0.025,inactive: -0.008,inactive: -0.002,inactive: 0.008,inactive: 0.055,inactive: -0.061,inactive: -0.004
PRXL2A (UniProt Q9BRX8),inactive: 0.025,inactive: -0.201,inactive: 0.025,inactive: -0.091,inactive: -0.097,inactive: 0.068,inactive: -0.034,inactive: -0.266,inactive: 0.001,inactive: 0.127
PTRHD1 (UniProt Q6GMV3),inactive: -0.02,inactive: 0.037,inactive: -0.009,inactive: 0.03,inactive: 0.095,inactive: -0.099,inactive: 0.026,inactive: -0.006,inactive: -0.065,inactive: -0.006
PSMA2 (UniProt P25787),inactive: 0.046,inactive: 0.02,inactive: 0.04,inactive: 0.04,inactive: -0.026,inactive: -0.021,inactive: -0.023,inactive: -0.033,inactive: 0.02,inactive: -0.015
PTRH2 (UniProt Q9Y3E5),inactive: -0.061,inactive: 0.018,inactive: -0.001,inactive: 0.004,inactive: -0.016,inactive: -0.002,inactive: 0.047,inactive: 0.007,inactive: -0.089,inactive: 0.005
QARS (UniProt P47897),inactive: 0.179,inactive: 0.032,inactive: 0.253,inactive: -0.01,inactive: 0.068,inactive: 0.019,inactive: -0.077,inactive: 0.248,inactive: 0.496,inactive: -0.246
PSMB7 (UniProt Q99436),inactive: -0.007,inactive: 0.042,inactive: 0.056,inactive: 0.086,inactive: -0.031,inactive: -0.037,inactive: -0.027,inactive: -0.01,inactive: 0.009,inactive: -0.049
QRICH1 (UniProt Q2TAL8),inactive: -0.043,inactive: -0.119,inactive: -0.137,inactive: -0.093,inactive: 0.168,–,inactive: 0.11,inactive: 0.047,inactive: -0.276,inactive: 0.027
PSMD3 (UniProt O43242),inactive: -0.027,inactive: 0.009,inactive: -0.032,inactive: 0.041,inactive: -0.02,inactive: -0.009,inactive: -0.009,inactive: 0.008,inactive: 0.014,inactive: -0.082
PTK2B (UniProt Q14289),inactive: 0.076,inactive: 0.091,inactive: -0.13,inactive: -0.092,inactive: 0.128,inactive: 0.011,–,inactive: 0.054,inactive: 0.072,–
PSME4 (UniProt Q14997),inactive: 0.047,inactive: -0.054,inactive: -0.204,inactive: -0.03,inactive: 0.011,inactive: 0.127,inactive: 0.047,inactive: -0.007,inactive: 0.02,inactive: -0.092
PTBP3 isoform 4 (UniProt O95758),inactive: -0.069,inactive: -0.023,inactive: -0.007,inactive: -0.093,inactive: 0.032,inactive: 0.058,inactive: 0.078,inactive: 0.005,inactive: 0.028,inactive: -0.027

# Full records as entered above. Order of values: log2 fold change [1] | log2 fold change [2] | log2 fold change [3] | log2 fold change [4] | log2 fold change [5] | log2 fold change [6] | log2 fold change [7] | log2 fold change [8] | log2 fold change [9] | log2 fold change [10]
# PTBP3 isoform 4 (UniProt O95758) reads inactive: -0.069 | inactive: -0.023 | inactive: -0.007 | inactive: -0.093 | inactive: 0.032 | inactive: 0.058 | inactive: 0.078 | inactive: 0.005 | inactive: 0.028 | inactive: -0.027
# PSMB7 (UniProt Q99436) reads inactive: -0.007 | inactive: 0.042 | inactive: 0.056 | inactive: 0.086 | inactive: -0.031 | inactive: -0.037 | inactive: -0.027 | inactive: -0.01 | inactive: 0.009 | inactive: -0.049

# Following part:

Target,log2 fold change [1],log2 fold change [2],log2 fold change [3],log2 fold change [4],log2 fold change [5],log2 fold change [6],log2 fold change [7],log2 fold change [8],log2 fold change [9],log2 fold change [10]
PSMC5 (UniProt P62195),inactive: 0.034,inactive: -0.001,inactive: 0.007,inactive: 0.054,inactive: -0.021,inactive: -0.004,inactive: -0.021,inactive: -0.005,inactive: 0.063,inactive: -0.075
PYCR1 isoform 3 (UniProt P32322),inactive: 0.045,inactive: 0.051,inactive: -0.044,–,inactive: -0.005,inactive: -0.013,inactive: 0.032,inactive: -0.028,inactive: 0.037,inactive: 0.005
PSAP isoform 3 (UniProt P07602),inactive: -0.018,inactive: -0.023,inactive: 0.02,inactive: 0.037,inactive: 0.061,inactive: -0.1,inactive: -0.025,inactive: -0.009,inactive: 0.001,inactive: -0.045
PSEN2 (UniProt P49810),inactive: -0.083,inactive: -0.066,inactive: -0.177,–,inactive: -0.034,inactive: -0.078,–,inactive: 0.078,–,–
PUS7L (UniProt Q9H0K6),inactive: -0.047,inactive: 0,inactive: -0.087,inactive: -0.036,inactive: 0.043,inactive: 0.023,inactive: 0.019,inactive: -0.031,inactive: 0.016,inactive: -0.087
PSMA4 (UniProt P25789),inactive: 0.035,inactive: 0.051,inactive: 0.035,inactive: 0.064,inactive: -0.02,inactive: -0.025,inactive: 0.019,inactive: 0.005,inactive: 0.121,inactive: -0.033
PTPN2 (UniProt P17706),inactive: -0.218,inactive: 0.047,inactive: -0.075,inactive: -0.076,inactive: 0.049,inactive: 0.107,inactive: 0.02,inactive: 0.118,inactive: -0.091,inactive: 0.029
PSMA8 (UniProt Q8TAA3),inactive: 0.02,inactive: -0.007,inactive: 0.032,inactive: -0.005,inactive: -0.037,inactive: -0.048,inactive: -0.011,inactive: -0.026,inactive: 0.017,inactive: -0.028
PRXL2B isoform 3 (UniProt Q8TBF2),inactive: 0.001,inactive: 0.025,inactive: 0.018,inactive: 0.027,inactive: -0.029,inactive: 0.004,inactive: 0.044,inactive: -0.057,inactive: -0.013,inactive: -0.019
PSMA7 isoform 2 (UniProt O14818),inactive: -0.401,inactive: -0.106,inactive: 0.108,inactive: -0.492,inactive: -0.299,–,inactive: -0.316,inactive: 0.272,inactive: -0.185,inactive: -0.11
PTPN1 (UniProt P18031),inactive: -0.075,inactive: -0.029,inactive: -0.03,inactive: -0.052,inactive: 0.018,inactive: 0.088,inactive: 0.087,inactive: 0.126,inactive: 0.026,inactive: -0.05
PYROXD1 (UniProt Q8WU10),inactive: 0,inactive: -0.103,inactive: -0.284,inactive: -0.059,inactive: 0.032,–,–,inactive: 0.078,inactive: 0,–
PXK (UniProt Q7Z7A4),inactive: -0.057,inactive: -0.044,active: -0.279,inactive: -0.073,inactive: 0.014,inactive: 0.018,inactive: 0.021,inactive: -0.002,inactive: -0.043,inactive: 0.008
PTPMT1 (UniProt Q8WUK0),inactive: -0.087,inactive: -0.264,inactive: -0.263,inactive: -0.166,inactive: 0.073,inactive: 0.049,inactive: 0.014,inactive: 0.032,inactive: -0.015,inactive: -0.082
PTP4A2 (UniProt Q12974),inactive: -0.161,inactive: -0.286,inactive: 0.079,inactive: -0.023,inactive: 0.011,–,inactive: 0.016,inactive: 0.052,inactive: -0.168,inactive: -0.045
